This passage reports binding results from article PMC12518127.

Results are given in words; binding and its absence hold for the method and conditions named. Binding seen in cells or lysates may run through a third protein. Some entries that bind do so weakly or less than the wild type. For some assays here: Tags and fused reporters may be left off the sequences shown.

Test [1] has as its target T1, mCherry-tagged K14, P02533.
T1 chain: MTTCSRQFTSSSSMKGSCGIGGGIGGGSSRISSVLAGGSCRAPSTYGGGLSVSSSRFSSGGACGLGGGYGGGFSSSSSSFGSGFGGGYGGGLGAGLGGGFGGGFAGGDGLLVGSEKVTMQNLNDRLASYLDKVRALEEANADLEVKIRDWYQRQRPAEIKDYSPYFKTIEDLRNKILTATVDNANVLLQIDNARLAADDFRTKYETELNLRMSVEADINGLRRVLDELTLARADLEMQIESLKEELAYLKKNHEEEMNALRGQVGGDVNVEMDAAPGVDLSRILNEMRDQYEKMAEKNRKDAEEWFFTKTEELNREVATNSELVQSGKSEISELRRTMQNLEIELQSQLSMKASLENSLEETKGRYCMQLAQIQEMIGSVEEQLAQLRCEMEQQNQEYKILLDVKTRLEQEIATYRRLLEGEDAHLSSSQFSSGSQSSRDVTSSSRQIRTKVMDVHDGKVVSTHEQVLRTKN
The experiment in a line: co-IP; IP with anti-mCherry antibody from lysates of UM-UC5 and UM-UC14 cells expressing K14-mCherry, immunoblot; control cells lacking K14-mCherry. The following applies: remark: other sources report otherwise. A general note: In western blotting, separated proteins are transferred to a membrane and probed.

In a further test the target is mCherry-tagged K14 (UniProt P02533). Described as above.

B1: FAM83H, Q6ZRV2 1-1179 (protein)
chain: MARRSQSSSQGDNPLAPGYLPPHYKEYYRLAVDALAEGGSEAYSRFLATEGAPDFLCPEELEHVSRHLRPPQYVTREPPEGSLLDVDMDGSSGTYWPVNSDQAVPELDLGWPLTFGFQGTEVTTLVQPPPPDSPSIKDEARRMIRSAQQVVAVVMDMFTDVDLLSEVLEAAARRVPVYILLDEMNAQHFLDMADKCRVNLQHVDFLRVRTVAGPTYYCRTGKSFKGHVKEKFLLVDCAVVMSGSYSFMWSFEKIHRSLAHVFQGELVSSFDEEFRILFAQSEPLVPSAAALARMDAYALAPYAGAGPLVGVPGVGAPTPFSFPKRAHLLFPPPREEGLGFPSFLDPDRHFLSAFRREEPPRMPGGALEPHAGLRPLSRRLEAEAGPAGELAGARGFFQARHLEMDAFKRHSFATEGAGAVENFAAARQVSRQTFLSHGDDFRFQTSHFHRDQLYQQQYQWDPQLTPARPQGLFEKLRGGRAGFADPDDFTLGAGPRFPELGPDGHQRLDYVPSSASREVRHGSDPAFAPGPRGLEPSGAPRPNLTQRFPCQAAARPGPDPAPEAEPERRGGPEGRAGLRRWRLASYLSGCHGEDGGDDGLPAPMEAEAYEDDVLAPGGRAPAGDLLPSAFRVPAAFPTKVPVPGPGSGGNGPEREGPEEPGLAKQDSFRSRLNPLVQRSSRLRSSLIFSTSQAEGAAGAAAATEKVQLLHKEQTVSETLGPGGEAVRSAASTKVAELLEKYKGPARDPGGGAGAITVASHSKAVVSQAWREEVAAPGAVGGERRSLESCLLDLRDSFAQQLHQEAERQPGAASLTAAQLLDTLGRSGSDRLPSRFLSAQSHSTSPQGLDSPLPLEGSGAHQVLHNESKGSPTSAYPERKGSPTPGFSTRRGSPTTGFIEQKGSPTSAYPERRGSPVPPVPERRSSPVPPVPERRGSLTLTISGESPKAGPAEEGPSGPMEVLRKGSLRLRQLLSPKGERRMEDEGGFPVPQENGQPESPRRLSLGQGDSTEAATEERGPRARLSSATANALYSSNLRDDTKAILEQISAHGQKHRAVPAPSPGPTHNSPELGRPPAAGVLAPDMSDKDKCSAIFRSDSLGTQGRLSRTLPASAEERDRLLRRMESMRKEKRVYSRFEVFCKKEEASSPGAGEGPAEEGTRDSKVGKFVPKILGTFKSKK
As to B1, in test [1], the binding result is given as “no binding”.

B2: Tripartite Motif-containing protein 29 (TRIM29) (protein, UniProt Q14134 1-588)
chain: MEAADASRSNGSSPEARDARSPSGPSGSLENGTKADGKDAKTTNGHGGEAAEGKSLGSALKPGEGRSALFAGNEWRRPIIQFVESGDDKNSNYFSMDSMEGKRSPYAGLQLGAAKKPPVTFAEKGELRKSIFSESRKPTVSIMEPGETRRNSYPRADTGLFSRSKSGSEEVLCDSCIGNKQKAVKSCLVCQASFCELHLKPHLEGAAFRDHQLLEPIRDFEARKCPVHGKTMELFCQTDQTCICYLCMFQEHKNHSTVTVEEAKAEKETELSLQKEQLQLKIIEIEDEAEKWQKEKDRIKSFTTNEKAILEQNFRDLVRDLEKQKEEVRAALEQREQDAVDQVKVIMDALDERAKVLHEDKQTREQLHSISDSVLFLQEFGALMSNYSLPPPLPTYHVLLEGEGLGQSLGNFKDDLLNVCMRHVEKMCKADLSRNFIERNHMENGGDHRYVNNYTNSFGGEWSAPDTMKRYSMYLTPKGGVRTSYQPSSPGRFTKETTQKNFNNLYGTKGNYTSRVWEYSSSIQNSDNDLPVVQGSSSFSLKGYPSLMRSQSPKAQPQTWKSGKQTMLSHYRPFYVNKGNGIGSNEAP
As to B2, in the test with mCherry-tagged K14, the binding result was “binds”.
